For one molecule, binding results are on record in publication PMC12619835.

The chains behind the UniProt entries cited, without tags or fusion partners.
UniProt Q13887: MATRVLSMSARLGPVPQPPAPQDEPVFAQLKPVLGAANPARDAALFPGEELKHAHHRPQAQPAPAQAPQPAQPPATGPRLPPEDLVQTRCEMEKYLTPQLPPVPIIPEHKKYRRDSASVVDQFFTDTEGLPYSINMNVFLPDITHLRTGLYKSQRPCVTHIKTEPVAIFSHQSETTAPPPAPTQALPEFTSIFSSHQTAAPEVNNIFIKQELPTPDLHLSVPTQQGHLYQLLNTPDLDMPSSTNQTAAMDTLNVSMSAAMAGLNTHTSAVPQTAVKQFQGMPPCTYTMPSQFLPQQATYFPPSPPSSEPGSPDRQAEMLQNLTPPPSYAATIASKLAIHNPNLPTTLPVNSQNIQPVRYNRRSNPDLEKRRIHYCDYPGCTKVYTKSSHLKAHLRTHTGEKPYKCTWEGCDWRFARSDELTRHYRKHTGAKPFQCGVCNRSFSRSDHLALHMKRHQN

No constants are given. Whether binding was seen depends on the method and setting. Binding seen in cells or lysates may run through a third protein. Here binding means that the protein was enriched with, or labelled near, the bait; the list need not be complete. No binding means not detected with the bait.

In the assay the target is recombinant MBP-tagged KLF5 (human) (UniProt Q13887). Nature of the assay: affinity purification with mass spectrometry; purified MBP-KLF5 (MBP alone as control) held on magnetic protein G beads by an MBP antibody; Benzonase-treated, pre-cleared AsPC-1 nuclear extract, 1-2 h; washes with 120 mM NaCl; 4 °C; three replicates; only the target purified.

B1: TADA2B (protein, UniProt Q86TJ2 1-420)
chain: MAELGKKYCVYCLAEVSPLRFRCTECQDIELCPECFSAGAEIGHHRRYHGYQLVDGGRFTLWGPEAEGGWTSREEQLLLDAIEQFGFGNWEDMAAHVGASRTPQEVMEHYVSMYIHGNLGKACIPDTIPNRVTDHTCPSGGPLSPSLTTPLPPLDISVAEQQQLGYMPLRDDYEIEYDQDAETLISGLSVNYDDDDVEIELKRAHVDMYVRKLKERQRRKNIARDYNLVPAFLGKDKKEKEKALKRKITKEEKELRLKLRPLYQFMSCKEFDDLFENMHKEKMLRAKIRELQRYRRNGITKMEESAEYEAARHKREKRKENKNLAGSKRGKEDGKDSEFAAIENLPGFELLSDREKVLCSSLNLSPARYVTVKTIIIKDHLQKRQGIPSKSRLPSYLDKVLKKRILNFLTESGWISRDAS
In the case of B1, the binding entry is reported as “no binding”.
